Test results taken from PubChem BioAssay AID624297 (National Center for Advancing Translational Sciences (NCATS), 2012).
The campaign covered roughly 340,000 compounds. About 6,200 (1.8%) were called active. The shares of active, inactive and inconclusive entries below differ from those in the screen. The call rests on the fitted dose curve; in most records, active means well fitted activation curve with a large enough effect; inconclusive means small, poorly fitted or top-dose-only effect; inactive means no such curve, though single readings can be large or run the other way. A potency beside an inconclusive call is a rough fit, not a confirmed value.
Potency means the concentration at half of the fitted maximal effect.

Test: A quantitative high throughput screen for small molecules that induce DNA re-replication in SW480 colon adenocarcinoma cells. Further: nearly all actives have a fitted effect of over 55% in size. On re-replication activation: % of control where 0% means no effect.
Conditions: Hoechst DNA content imaging, 48 h; re-replication activation: at 46.1 µM (top of the series)
Procedure, shortened: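 Cells (250 per well) received 23 nL compound or DMSO by pin tool and were kept 48 hr at 37 C, 5% CO2. Nuclei were then stained with Hoechst for 40 min and scanned for DNA content.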
With `Cc1nc(C)c(-c2csc(Nc3ccc(O)cc3C)n2)s1` the Potency was inconclusive: 23.1 µM [activator, single point].
For `COc1cc(NC(=O)COc2cc(O)c3c(c2)OC(C)(C)CC3=O)cc(OC)c1OC`, the Potency was “inactive”.
With `CC(C)N1CN(c2ccccc2)C(=S)N(c2ccccc2)C1` the Potency was inconclusive: 0.164 µM [activator, full curve, poor fit].
In the case of `CCC(C)Sc1cc(-c2nc3ccc(C)cn3c2NCc2ccccc2)ccc1OC` (centres undefined), the Potency is reported as inconclusive: 14.6 µM [activator, single point].
With `COc1cccc(-c2nnc(SCC(=O)N(C(C)C)C(C)C)o2)c1` the Potency was “inactive”.
For `COc1ccc(NC(=O)C(C)N2c3cccc4cccc(c34)S2(=O)=O)c(OC)c1` (centres undefined), the Potency was inconclusive: 0.58 µM [activator, full curve, poor fit].
For `CC(=O)c1ccc(OCCCC(=O)Nc2ccc(C)c(S(=O)(=O)N(C)C)c2)cc1`, the Potency was “inactive”.
In the case of `NC(=O)NNc1ncc(C(F)(F)F)cc1Cl`, the Potency is reported as inconclusive: 20.6 µM [activator, partial curve, poor fit].
For `COC(=O)c1ccc(/C=C/c2ccc3cccc(OC)c3n2)cc1`, the Potency was inconclusive: 29.1 µM [activator, single point].
In the case of `S=C(NNc1ccc2ccccc2c1)NC1CCCCC1`, the Potency is reported as inconclusive: 23.1 µM [activator, single point].
For `CC(C)(C)c1ccc(-c2conc2N)cc1`, the Potency was inconclusive: 35.5 µM [activator, single point].
For `Cc1ccc(OCCOCCOc2ccc(Br)cc2/C=N\NC(=O)c2ccncc2)cc1`, the Potency was inconclusive: 20.6 µM [activator, single point].
In the case of `O=C(CCN1C(=O)C2CC=CCC2C1=O)Nc1nc(-c2ccc(F)c(F)c2)cs1` (centres undefined), the Potency is reported as inconclusive: 6.51 µM [activator, single point].
For `CCCOc1cccc(-c2cc(C(=O)N/N=C/c3cccnc3)c3ccccc3n2)c1`, the Potency was inconclusive: 29.1 µM [activator, single point].
With `O=C(N[C@@H](Cc1c[nH]c2ccccc12)C(=O)O)OCC1c2ccccc2-c2ccccc21` the Potency was inconclusive: 23.1 µM [activator, single point].
In the case of `CCNC(=O)COC(=O)c1[nH]c(C)c(C(=O)OC)c1C`, the Potency is reported as “inactive”.
In the case of `Cc1[nH]nc(-c2ccc(O)c(C)c2O)c1Oc1ccccc1`, the Potency is reported as “inactive”.
With `CCCOc1ccc(-c2cc(C(=O)NCC3CCCO3)c3ccccc3n2)cc1` (centres undefined) the Potency was “inactive”.
For `O=C(CSC1=NCCS1)NC(c1ccccc1)c1ccccc1`, the Potency was inconclusive: 29.1 µM [activator, single point].
With `COc1ccc(C2CC(c3cccs3)=NN2c2ccc(F)cc2)cc1OC` (centres undefined) the Potency was inconclusive: 7.31 µM [activator, single point].
In the case of `CC(=NNC(=S)N1CCCCCC1)c1ccccn1`, the Potency is reported as inconclusive: 0.731 µM [activator, partial curve, poor fit].
With `O=C(/C=C/c1cccc(O)c1)c1ccc(N2CCOCC2)cc1` the Potency was inconclusive: 29.1 µM [activator, single point].
For `CCOc1ccc(C(=O)CCN2CCCCCC2)cc1`, the Potency was inconclusive: 14.6 µM [activator, single point].
In the case of `Cc1ccc(-c2cc(C(=O)Nc3cc(C)on3)no2)cc1`, the Potency is reported as “inactive”.
For `CCC(=O)Nc1nc2ccccc2n1Cc1ccccc1C`, the Potency was inconclusive: 20.6 µM [activator, partial curve, poor fit].
With `Cn1c(=O)c2c(nc(SCC(=O)N3c4ccccc4CCc4ccccc43)n2C)n(C)c1=O` the Potency was “inactive”.
With `CCN1CCN(c2c(C=O)c(Cl)nc3ccc(OC)cc23)CC1` the Potency was “inactive”.
For `O=C(CSc1c2c(nc3ccc(Cl)cc13)CCCC2)NCCCN1CCOCC1`, the Potency was inconclusive: 20.6 µM [activator, single point].
With `CCCCn1c(SCC(=O)Nc2cc(C(F)(F)F)cc(C(F)(F)F)c2)nnc1C(CC)N(C)C` (centres undefined) the Potency was inconclusive: 29.1 µM [activator, single point].
With `O=C(CCl)Nc1ccccc1Sc1ccc(Cl)cc1` the Potency was active: 14.6 µM.
For `COc1ccc(CCNC(=O)C(C)n2nc(C)c3c(C)n(-c4ccc(C)cc4)nc3c2=O)c(OC)c1` (centres undefined), the Potency was inconclusive: 29.1 µM [activator, single point].
With `O=C(CN1CCN(c2ccc(O)cc2)CC1)Nc1ccc2c(c1)OCCO2` the Potency was inconclusive: 29.1 µM [activator, partial curve, poor fit].
With `Cc1ccccc1C(=O)Nc1ccc(N(C)C)c2ccccc12` the Potency was “inactive”.
With `CCN(CC(=O)Nc1ccc(NC(C)=O)cc1)C(=O)c1cc2c(s1)CCCC2` the Potency was inconclusive: 29.1 µM [activator, single point].
With `Cc1nc2scc(C)n2c(=O)c1S(=O)(=O)Nc1ccc(N2CCOCC2)c(Cl)c1` the Potency was inconclusive: 2.06 µM [activator, partial curve].
With `Cc1ccc(CNc2nc(N)c([N+](=O)[O-])c(NCCO)n2)cc1` the Potency was inconclusive: 23.1 µM [activator, single point].
For `COC(=O)c1c(N2C(=O)[C@H]3[C@@H](C2=O)[C@]2(C(=O)Nc4c(C)cccc42)N2CCC[C@@H]32)sc(C)c1C`, the Potency was inconclusive: 29.1 µM [activator, single point].
In the case of `Cc1coc2cc3oc(=O)cc(C)c3cc12`, the Potency is reported as inconclusive: 0.92 µM [activator, partial curve, poor fit].
For `CC1C/C(=N/N2C(=O)CSC2=S)CC(C)(C)C1` (centres undefined), the Potency was “inactive”.
In the case of `Clc1ccc(-c2ccccc2)nn1`, the Potency is reported as inconclusive: 16.4 µM [activator, single point].
In the case of `CCS(=O)(=O)N1Cc2ccccc2CC1C(=O)Nc1nc2ccc(F)cc2s1` (centres undefined), the Potency is reported as inconclusive: 6.51 µM [activator, single point].
With `CCOC(=O)c1ccc(Nc2nc(N3CCOCC3)nc(N3CCOCC3)n2)cc1` the Potency was inconclusive: 18.4 µM [activator, single point].
For `Fc1ccc(Nc2c3c(nc4ccccc24)CCC3)cc1`, the Potency was inconclusive: 13 µM [activator, partial curve, poor fit].
In the case of `Nc1c(C(=O)Nc2ccc3c(c2)OCCO3)nnn1Cc1cccc(Br)c1`, the Potency is reported as inconclusive: 29.1 µM [activator, single point].
With `Nc1ccc2c(c1)-c1ccccc1S(=O)(=O)N2` the Potency was inconclusive: 3.26 µM [activator, single point].
With `COc1ccc(S(=O)(=O)N2CCN(C(=O)c3ccc(NC(C)=O)cc3)CC2)cc1` the Potency was inconclusive: 0.0058 µM [activator, full curve, poor fit].
For `COc1ccc(N2CCN(C(=O)CSc3nc(C)cs3)CC2)cc1`, the Potency was active: 18.4 µM.
With `CC(=O)NCCOc1nc(N(C)C)nc(N2CCCCC2)n1` the Potency was “inactive”.
In the case of `O=C(NC1CCCCC1)C(c1ccncc1)N(Cc1ccc(F)cc1)C(=O)c1ccccn1` (centres undefined), the Potency is reported as “inactive”.
With `CC1=C(C(=O)Nc2ccccc2C(F)(F)F)C(c2sccc2C)NC(=S)N1` (centres undefined) the Potency was inconclusive: 3.26 µM [activator, partial curve, poor fit].
For `O=C(N/N=C/c1ccccc1Cl)c1cccc(F)c1`, the Potency was “inactive”.
For `COC(=O)Cc1c(C)c2c(OCc3nn[nH]n3)cc(C)cc2oc1=O`, the Potency was “inactive”.
For `CC1(C)CC(=O)C/C(=N/NC(=O)C2CCN(S(=O)(=O)c3cccs3)CC2)C1`, the Potency was inconclusive: 5.8 µM [activator, full curve, poor fit].
For `O=C(Nc1nc2ccc(S(=O)(=O)N3CCCC3)cc2s1)C1CCCCC1`, the Potency was active: 7.31 µM.
With `COc1cccc(C(=O)Nc2cc(NC(=O)c3cccs3)ccc2C)c1` the Potency was inconclusive: 29.1 µM [activator, single point].
For `COc1ccc(-n2nc3c(c2NC(=O)c2cc4ccccc4o2)CS(=O)(=O)C3)cc1`, the Potency was inconclusive: 29.1 µM [activator, partial curve, poor fit].
In the case of `CCc1ccccc1NNC(=O)c1snnc1C`, the Potency is reported as active: 11.6 µM.
With `CCOC(=O)C1=C(COC(=O)C(CC)c2ccccc2)NC(=O)NC1C` (centres undefined) the Potency was “inactive”.
In the case of `Cc1cc(=O)oc2cc(OCc3ccc(C(=O)OCC(=O)Nc4ccc(N(C)C)cc4)cc3)ccc12`, the Potency is reported as “inactive”.
With `Cn1nccc1C(=O)Nc1sc2c(c1C(N)=O)CCCC2` the Potency was “inactive”.
In the case of `O=C(c1cc(-c2ccc(Br)cc2)nc2ccccc12)N1CCN(c2ccccc2O)CC1`, the Potency is reported as inconclusive: 29.1 µM [activator, single point].
For `COC(=O)C/C(O)=C(/N=Nc1cccc(C(F)(F)F)c1)C(=O)OC`, the Potency was inconclusive: 29.1 µM [activator, single point].
With `COc1ccc(-c2nc(-c3ccc4c(c3)OCO4)[nH]c2-c2ccc(OC)cc2)cc1` the Potency was inconclusive: 29.1 µM [activator, partial curve, poor fit].
For `O=C(CSC1=NCCS1)NCc1ccco1`, the Potency was inconclusive: 18.4 µM [activator, single point].
For `CC(C)N(Cc1ccccc1)C(=O)CN1C(=O)NC2(CCCC2)C1=O`, the Potency was “inactive”.
With `CCOP(=O)(c1ccccc1)c1nc(-c2ccccc2C)oc1N1CCCCC1` (centres undefined) the Potency was inconclusive: 16.4 µM [activator, single point].
In the case of `CCOC(=O)/C=C1\SCC(=O)N1CC(O)CN1C(=O)CS/C1=C/C(=O)OCC` (centres undefined), the Potency is reported as inconclusive: 0.82 µM [activator, partial curve, poor fit].
For `CC(=O)N1CCOc2ccc(S(=O)(=O)N(C)c3cccc(C)c3)cc21`, the re-replication activation was inconclusive: 49.3% [activator].
For `Cc1cc(C)nc(NC(=O)C(c2ccccc2)c2ccccc2)c1`, the Potency was inconclusive: 29.1 µM [activator, partial curve, poor fit].
